The supplement of paper PMC10849652
Some of the results follow.

Chains of the proteins cited; added tags and fusions are not shown. Lines headed by an entry give the natural chain unless they say otherwise; changes in a name come on top.
UniProt Q9Y2H0: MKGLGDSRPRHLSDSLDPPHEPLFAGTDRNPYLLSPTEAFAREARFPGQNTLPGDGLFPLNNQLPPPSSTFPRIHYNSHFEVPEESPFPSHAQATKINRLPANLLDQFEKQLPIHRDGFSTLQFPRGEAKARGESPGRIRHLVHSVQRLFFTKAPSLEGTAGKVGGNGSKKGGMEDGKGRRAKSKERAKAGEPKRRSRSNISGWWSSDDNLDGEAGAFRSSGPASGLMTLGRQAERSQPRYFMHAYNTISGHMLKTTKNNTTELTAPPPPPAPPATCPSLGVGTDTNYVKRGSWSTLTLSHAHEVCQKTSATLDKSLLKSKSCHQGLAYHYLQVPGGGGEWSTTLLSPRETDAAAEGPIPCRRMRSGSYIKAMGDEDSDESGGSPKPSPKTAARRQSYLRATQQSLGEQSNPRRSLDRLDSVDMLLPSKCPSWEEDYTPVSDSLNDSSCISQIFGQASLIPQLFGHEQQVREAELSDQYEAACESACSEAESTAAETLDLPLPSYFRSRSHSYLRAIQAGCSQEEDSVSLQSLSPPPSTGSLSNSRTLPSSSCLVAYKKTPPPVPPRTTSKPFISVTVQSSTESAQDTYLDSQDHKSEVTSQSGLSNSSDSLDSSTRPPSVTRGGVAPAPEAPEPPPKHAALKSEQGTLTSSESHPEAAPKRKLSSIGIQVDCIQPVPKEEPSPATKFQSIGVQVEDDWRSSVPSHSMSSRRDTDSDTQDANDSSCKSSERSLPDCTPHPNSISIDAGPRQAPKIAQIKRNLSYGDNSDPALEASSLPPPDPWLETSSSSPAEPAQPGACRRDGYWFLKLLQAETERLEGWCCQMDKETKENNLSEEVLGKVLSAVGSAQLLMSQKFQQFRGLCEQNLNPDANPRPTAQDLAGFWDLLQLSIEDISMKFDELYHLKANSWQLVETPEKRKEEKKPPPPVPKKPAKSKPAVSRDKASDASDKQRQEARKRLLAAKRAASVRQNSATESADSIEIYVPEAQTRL
UniProt Q9P265: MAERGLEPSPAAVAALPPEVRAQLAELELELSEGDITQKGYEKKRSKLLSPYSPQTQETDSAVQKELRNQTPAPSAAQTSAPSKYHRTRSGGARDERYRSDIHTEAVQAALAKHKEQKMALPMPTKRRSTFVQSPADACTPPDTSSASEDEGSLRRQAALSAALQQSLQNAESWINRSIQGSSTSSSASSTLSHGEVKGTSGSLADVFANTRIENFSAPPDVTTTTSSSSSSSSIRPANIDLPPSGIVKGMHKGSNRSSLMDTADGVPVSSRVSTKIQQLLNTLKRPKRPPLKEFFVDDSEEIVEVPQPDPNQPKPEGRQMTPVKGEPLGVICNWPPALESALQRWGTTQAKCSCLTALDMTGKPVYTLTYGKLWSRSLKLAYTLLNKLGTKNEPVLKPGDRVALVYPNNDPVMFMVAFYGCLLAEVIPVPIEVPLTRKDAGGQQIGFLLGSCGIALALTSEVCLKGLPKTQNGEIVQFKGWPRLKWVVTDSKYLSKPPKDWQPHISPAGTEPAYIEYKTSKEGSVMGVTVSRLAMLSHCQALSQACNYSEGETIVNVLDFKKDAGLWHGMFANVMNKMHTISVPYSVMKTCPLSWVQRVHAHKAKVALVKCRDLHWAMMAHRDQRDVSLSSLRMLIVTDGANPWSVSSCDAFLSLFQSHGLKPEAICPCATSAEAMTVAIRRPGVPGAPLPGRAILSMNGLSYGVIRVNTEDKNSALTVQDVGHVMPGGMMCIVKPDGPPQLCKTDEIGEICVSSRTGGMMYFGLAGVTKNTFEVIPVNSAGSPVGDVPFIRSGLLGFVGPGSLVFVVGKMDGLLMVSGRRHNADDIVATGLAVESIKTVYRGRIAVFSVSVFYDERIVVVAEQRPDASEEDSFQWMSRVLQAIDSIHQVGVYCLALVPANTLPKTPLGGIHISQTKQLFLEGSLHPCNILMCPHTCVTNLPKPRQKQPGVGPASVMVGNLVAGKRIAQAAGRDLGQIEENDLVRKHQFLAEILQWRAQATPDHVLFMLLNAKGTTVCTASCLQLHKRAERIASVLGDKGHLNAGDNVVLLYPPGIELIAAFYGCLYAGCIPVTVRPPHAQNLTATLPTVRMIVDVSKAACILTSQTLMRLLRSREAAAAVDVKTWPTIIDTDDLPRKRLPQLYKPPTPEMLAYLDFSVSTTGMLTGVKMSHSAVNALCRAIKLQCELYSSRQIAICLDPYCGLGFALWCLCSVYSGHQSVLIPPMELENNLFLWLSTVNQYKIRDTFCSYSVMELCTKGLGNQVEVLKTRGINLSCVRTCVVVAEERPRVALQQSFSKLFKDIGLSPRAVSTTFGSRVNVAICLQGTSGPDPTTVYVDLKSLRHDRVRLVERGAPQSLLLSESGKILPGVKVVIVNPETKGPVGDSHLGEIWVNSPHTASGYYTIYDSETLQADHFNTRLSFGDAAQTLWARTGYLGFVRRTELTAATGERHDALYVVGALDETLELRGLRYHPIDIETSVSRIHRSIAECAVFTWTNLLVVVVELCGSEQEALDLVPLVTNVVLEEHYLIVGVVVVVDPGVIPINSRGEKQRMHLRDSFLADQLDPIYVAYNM
UniProt Q08211, whole entry, looked up: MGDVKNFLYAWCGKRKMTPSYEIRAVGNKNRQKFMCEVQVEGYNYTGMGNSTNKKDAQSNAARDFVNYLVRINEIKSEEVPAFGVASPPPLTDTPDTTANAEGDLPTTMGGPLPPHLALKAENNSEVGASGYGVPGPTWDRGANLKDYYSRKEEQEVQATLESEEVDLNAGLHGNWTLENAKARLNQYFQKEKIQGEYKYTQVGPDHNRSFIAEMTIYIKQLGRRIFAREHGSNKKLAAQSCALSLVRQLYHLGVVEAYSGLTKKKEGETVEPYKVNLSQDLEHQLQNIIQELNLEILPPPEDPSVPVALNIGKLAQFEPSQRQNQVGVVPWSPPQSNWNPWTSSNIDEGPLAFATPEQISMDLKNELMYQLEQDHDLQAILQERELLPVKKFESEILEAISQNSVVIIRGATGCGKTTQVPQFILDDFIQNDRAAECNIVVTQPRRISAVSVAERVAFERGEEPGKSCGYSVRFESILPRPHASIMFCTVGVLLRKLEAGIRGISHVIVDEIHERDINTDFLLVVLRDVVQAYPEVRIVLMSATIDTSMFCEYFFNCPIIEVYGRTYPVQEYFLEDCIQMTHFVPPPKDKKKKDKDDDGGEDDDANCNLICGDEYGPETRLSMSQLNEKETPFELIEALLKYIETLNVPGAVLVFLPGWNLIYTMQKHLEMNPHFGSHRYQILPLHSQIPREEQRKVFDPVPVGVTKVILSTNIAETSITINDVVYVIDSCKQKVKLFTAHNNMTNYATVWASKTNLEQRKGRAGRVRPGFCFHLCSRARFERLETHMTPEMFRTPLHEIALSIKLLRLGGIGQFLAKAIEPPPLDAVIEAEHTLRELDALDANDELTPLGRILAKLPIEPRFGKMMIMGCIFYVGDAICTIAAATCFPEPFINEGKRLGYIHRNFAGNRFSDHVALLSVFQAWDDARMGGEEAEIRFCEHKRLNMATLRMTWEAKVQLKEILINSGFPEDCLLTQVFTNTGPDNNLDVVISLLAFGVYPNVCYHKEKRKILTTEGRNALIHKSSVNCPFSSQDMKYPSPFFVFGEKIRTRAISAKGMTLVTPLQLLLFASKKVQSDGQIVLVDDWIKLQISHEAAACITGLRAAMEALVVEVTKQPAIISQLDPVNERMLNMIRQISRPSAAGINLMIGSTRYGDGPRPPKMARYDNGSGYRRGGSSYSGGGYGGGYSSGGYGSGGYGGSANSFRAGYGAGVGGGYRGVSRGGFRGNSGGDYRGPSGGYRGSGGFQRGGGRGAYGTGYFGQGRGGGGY
UniProt O00273: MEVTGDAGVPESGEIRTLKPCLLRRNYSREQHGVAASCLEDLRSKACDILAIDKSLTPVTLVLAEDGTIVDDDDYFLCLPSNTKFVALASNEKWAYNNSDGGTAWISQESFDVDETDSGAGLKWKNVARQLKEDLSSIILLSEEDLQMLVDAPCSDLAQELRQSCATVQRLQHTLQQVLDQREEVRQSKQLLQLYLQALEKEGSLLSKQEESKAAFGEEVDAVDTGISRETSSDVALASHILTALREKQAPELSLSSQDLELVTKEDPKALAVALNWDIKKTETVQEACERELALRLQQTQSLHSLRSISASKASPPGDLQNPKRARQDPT
UniProt O43583: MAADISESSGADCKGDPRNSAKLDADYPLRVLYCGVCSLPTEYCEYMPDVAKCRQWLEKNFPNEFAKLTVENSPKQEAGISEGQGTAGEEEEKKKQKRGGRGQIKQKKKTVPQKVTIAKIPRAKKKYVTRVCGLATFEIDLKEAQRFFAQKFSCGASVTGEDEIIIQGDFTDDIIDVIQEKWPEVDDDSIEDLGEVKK
UniProt Q92499: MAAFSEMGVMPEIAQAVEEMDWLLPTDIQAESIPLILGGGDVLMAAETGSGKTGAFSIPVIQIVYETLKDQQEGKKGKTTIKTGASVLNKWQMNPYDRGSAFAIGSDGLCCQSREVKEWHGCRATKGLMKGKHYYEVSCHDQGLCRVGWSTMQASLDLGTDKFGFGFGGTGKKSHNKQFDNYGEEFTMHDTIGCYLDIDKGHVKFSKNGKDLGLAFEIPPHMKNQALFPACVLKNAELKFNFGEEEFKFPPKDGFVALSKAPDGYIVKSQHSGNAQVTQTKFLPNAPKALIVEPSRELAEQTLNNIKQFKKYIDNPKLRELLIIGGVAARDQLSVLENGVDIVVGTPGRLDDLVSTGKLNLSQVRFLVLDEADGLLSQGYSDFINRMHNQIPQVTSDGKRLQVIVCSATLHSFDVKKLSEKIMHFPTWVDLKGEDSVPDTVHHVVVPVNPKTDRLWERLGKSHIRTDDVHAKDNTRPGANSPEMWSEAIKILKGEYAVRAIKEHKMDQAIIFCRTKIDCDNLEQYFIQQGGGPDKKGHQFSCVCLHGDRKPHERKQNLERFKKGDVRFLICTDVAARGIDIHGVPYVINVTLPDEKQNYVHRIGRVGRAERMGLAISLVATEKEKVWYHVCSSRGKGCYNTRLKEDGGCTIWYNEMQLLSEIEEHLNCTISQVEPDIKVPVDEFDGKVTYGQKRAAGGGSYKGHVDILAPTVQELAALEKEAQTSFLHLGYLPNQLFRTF
UniProt Q9NR28: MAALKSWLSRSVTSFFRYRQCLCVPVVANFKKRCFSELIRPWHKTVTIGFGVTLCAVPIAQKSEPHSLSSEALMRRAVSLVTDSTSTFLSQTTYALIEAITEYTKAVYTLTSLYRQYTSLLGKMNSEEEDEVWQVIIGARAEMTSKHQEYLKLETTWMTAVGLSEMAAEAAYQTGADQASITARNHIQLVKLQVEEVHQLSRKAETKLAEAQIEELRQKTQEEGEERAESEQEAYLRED
UniProt P98153: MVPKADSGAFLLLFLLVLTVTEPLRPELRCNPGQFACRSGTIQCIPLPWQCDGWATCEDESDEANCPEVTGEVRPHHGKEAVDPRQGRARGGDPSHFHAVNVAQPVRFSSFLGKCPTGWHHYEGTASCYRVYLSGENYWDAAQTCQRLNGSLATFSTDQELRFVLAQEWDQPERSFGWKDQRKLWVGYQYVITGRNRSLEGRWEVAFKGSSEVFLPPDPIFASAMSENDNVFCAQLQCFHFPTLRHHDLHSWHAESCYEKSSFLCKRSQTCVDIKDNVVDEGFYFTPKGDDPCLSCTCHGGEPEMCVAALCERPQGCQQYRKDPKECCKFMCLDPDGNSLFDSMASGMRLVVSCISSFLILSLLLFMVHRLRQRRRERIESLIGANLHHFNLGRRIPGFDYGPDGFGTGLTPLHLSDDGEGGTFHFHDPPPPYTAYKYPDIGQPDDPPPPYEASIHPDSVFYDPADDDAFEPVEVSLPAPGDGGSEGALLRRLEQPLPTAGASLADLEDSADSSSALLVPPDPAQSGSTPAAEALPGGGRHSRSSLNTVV
UniProt Q8IWF6: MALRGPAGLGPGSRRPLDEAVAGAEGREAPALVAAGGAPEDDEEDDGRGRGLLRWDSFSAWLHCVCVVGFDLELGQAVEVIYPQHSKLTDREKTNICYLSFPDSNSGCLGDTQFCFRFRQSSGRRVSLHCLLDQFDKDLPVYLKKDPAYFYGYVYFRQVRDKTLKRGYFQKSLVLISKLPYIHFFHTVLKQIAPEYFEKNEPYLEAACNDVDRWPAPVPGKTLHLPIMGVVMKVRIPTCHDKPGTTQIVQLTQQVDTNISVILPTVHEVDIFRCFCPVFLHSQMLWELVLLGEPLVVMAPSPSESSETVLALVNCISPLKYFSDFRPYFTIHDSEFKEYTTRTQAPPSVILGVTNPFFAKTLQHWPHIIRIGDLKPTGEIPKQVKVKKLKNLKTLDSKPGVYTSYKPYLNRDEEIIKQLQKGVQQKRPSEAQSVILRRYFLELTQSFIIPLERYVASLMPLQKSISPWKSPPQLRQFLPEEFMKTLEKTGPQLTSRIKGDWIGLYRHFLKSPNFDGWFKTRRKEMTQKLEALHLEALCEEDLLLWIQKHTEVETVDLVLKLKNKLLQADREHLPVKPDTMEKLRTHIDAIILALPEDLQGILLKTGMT

Tests used:
Experiment in all cases: log2 fold change, soluble protein after heating vs DMSO (PISA); higher = thermal stabilisation; K562 cells, 10 uM, 30 min; active = over 0.2 and 3.5 SD of the protein, either way, in both replicates (recomputed)
[1] = compound: CC1=C(C=C(C=C1)NC(=O)C2=CC(=CC=C2)C(C)(C)C#N)NC3=CC4=C(C=C3)N=CN(C4=O)C
Method in brief: (§1)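 K562 cells at 2×10^6 cells/mL were treated with 10 μM compound for 30 min. Aliquots were heated for 3 min across 48°C-58°C, pooled, and extracted in PBS with 0.5% NP-40 at 4°C; soluble protein was the supernatant after 21,000xg for 90 min. Soluble protein was quantified by TMTpro 16plex LC-MS/MS with channel sums equalised, and reported as log2 fold change in thermal stability against DMSO controls, with values from duplicates.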

[2] = compound: CC1=C(C=C(C=C1)NC(=O)C2=CC(=CC=C2)N(C)C)NC(=O)C3=CC=C(C=C3)O
Method in brief: as §1

[3] = compound: CC1=CC=C(C=C1)SC2=C3C=C(SC3=CN=C2)C(=O)N
Method in brief: as §1

[4] = compound: CC1=NC(=CC=C1)C2=C(N=C(N2)C(C)(C)C)C3=CC4=NC=CN=C4C=C3
Method in brief: as §1

Nexturastat A = compound: CCCCN(Cc1ccc(C(=O)NO)cc1)C(=O)Nc1ccccc1 [Nexturastat A]
Method in brief: as §1

vemurafenib = compound: CCCS(=O)(=O)Nc1ccc(F)c(C(=O)c2c[nH]c3ncc(-c4ccc(Cl)cc4)cc23)c1F [vemurafenib]
Method in brief: as §1

[5] = compound: CCCS(=O)(=O)Nc1ccc(F)c(C(=O)c2c[nH]c3ncc(Cl)cc23)c1F
Method in brief: as §1

[6] = compound: CCCc1cc(C)[nH]c(=O)c1CNC(=O)c1cc(-c2ccnc(N3CCN(C)CC3)c2)cc2c1cnn2C(C)C
Method in brief: as §1

givinostat = compound: CCN(CC)Cc1ccc2cc(COC(=O)Nc3ccc(C(=O)NO)cc3)ccc2c1 [givinostat]
Method in brief: as §1

barasertib = compound: CCN(CCCOc1ccc2c(Nc3cc(CC(=O)Nc4cccc(F)c4)[nH]n3)ncnc2c1)CCOP(=O)(O)O [barasertib]
Method in brief: as §1

[7] = compound: CC[C@@H]1C(=O)N(C)c2cnc(Nc3ccc(C(=O)NC4CCN(C)CC4)cc3OC)nc2N1C1CCCC1
Method in brief: as §1

volasertib = compound: CC[C@@H]1C(=O)N(C)c2cnc(Nc3ccc(C(=O)N[C@H]4CC[C@H](N5CCN(CC6CC6)CC5)CC4)cc3OC)nc2N1C(C)C [volasertib]
Method in brief: as §1

[8] = compound: CC[C@H](C)N1C=C(C2=C(C=C(C=C21)C3=CN=C(C=C3)N4CCNCC4)C(=O)NCC5=C(C=C(NC5=O)C)C)C
Method in brief: as §1

epoxomicin = compound: CC[C@H](C)[C@@H](C(=O)N[C@@H]([C@@H](C)O)C(=O)N[C@@H](CC(C)C)C(=O)[C@]1(CO1)C)NC(=O)[C@H]([C@@H](C)CC)N(C)C(=O)C [epoxomicin]
Method in brief: as §1

[9] = compound: CCn1c(C(=O)N(C2CC2)C2CC2)cc2c3c(ncn3C)c(Nc3cc(C)n(C)n3)nc21
Method in brief: as §1

[10] = compound: CCn1cc(-c2ccnc3[nH]c(-c4cccc(CN(C)C)c4)cc23)c(-c2ccc(NC(=O)N(C)C)cc2)n1
Method in brief: as §1

[11] = compound: CN(C)CC(=O)Nc1ccc2[nH]c(=O)c3ccccc3c2c1
Method in brief: as §1

rosiglitazone = compound: CN(CCOC1=CC=C(C=C1)C[C@H]2C(=O)NC(=O)S2)C3=CC=CC=N3 (racemic) [rosiglitazone]
Method in brief: as §1

[12] = compound: CN1C2=C(C3=C1C(=O)N(N=C3)CC4=CC(=CC=C4)N)SC(=C2)S(=O)C
Method in brief: as §1

[13] = compound: CN1CCC(CNc2ccc3ncc(-c4cccc(OC(F)(F)F)c4)n3n2)CC1
Method in brief: as §1

Measured: log2 fold change

DHX30 isoform 2 (UniProt Q7L2E3)
inactive: [1] 0.02 | [2] 0.012 | [3] -0.034 | [4] 0.01 | Nexturastat A 0.332 | vemurafenib -0.06 | [5] -0.012 | [6] 0.009 | givinostat 0.023 | barasertib -0.077 | [7] 0.019 | volasertib 0.057 | [8] 0.004 | epoxomicin -0.189 | [9] 0.03 | [10] 0.118 | [11] -0.063 | rosiglitazone -0.093 | [12] 0.243 | [13] -0.035

DLGAP4 (UniProt Q9Y2H0)
inactive: [1] 0.014 | [2] 0.031 | [3] 0.022 | [4] 0.026 | Nexturastat A -0.006 | vemurafenib 0.004 | [5] -0.002 | [6] -0.013 | givinostat -0.003 | barasertib 0.049 | [7] 0.013 | volasertib -0.011 | [8] -0.004 | epoxomicin 0.016 | [9] 0.027 | [10] -0.002 | [11] -0.033 | rosiglitazone 0.034 | [12] -0.028 | [13] -0.043

DIP2B (UniProt Q9P265)
inactive: [1] 0.017 | [2] -0.005 | [3] 0.005 | [4] -0.003 | Nexturastat A -0.021 | vemurafenib -0.022 | [5] 0.018 | [6] 0.011 | givinostat 0.006 | barasertib -0.011 | [7] 0.02 | volasertib -0.037 | [8] 0.023 | epoxomicin 0.011 | [9] 0.001 | [10] -0.031 | [11] 0.003 | rosiglitazone 0.015 | [12] -0.082 | [13] -0.008

DMD (UniProt P11532)
inactive: [1] -0.004 | [2] 0.015 | [3] 0.014 | [4] -0.026 | Nexturastat A -0.073 | vemurafenib 0.041 | [5] 0.061 | [6] -0.023 | givinostat 0.028 | barasertib 0.038 | [7] -0.034 | volasertib -0.097 | [8] 0.036 | epoxomicin 0.01 | [9] 0.005 | [10] -0.019 | [11] 0.017 | rosiglitazone 0.03 | [12] -0.071 | [13] -0.006

DHX9 (UniProt Q08211)
inactive: [1] -0.005 | [2] -0.01 | [3] -0.073 | [4] -0.061 | Nexturastat A 0.148 | vemurafenib -0.053 | [5] -0.02 | [6] 0.109 | givinostat 0.06 | barasertib -0.15 | [7] 0.214 | volasertib -0.006 | [8] 0 | epoxomicin -0.207 | [9] -0.058 | [10] 0.196 | [11] -0.073 | rosiglitazone -0.15 | [12] 0.201 | [13] 0.266

DFFA (UniProt O00273)
inactive: [1] -0.009 | [2] 0.009 | [3] -0.007 | [4] 0.043 | Nexturastat A -0.043 | vemurafenib 0.01 | [5] -0.005 | [6] 0.024 | givinostat -0.022 | barasertib 0.008 | [7] -0.012 | volasertib -0.033 | [8] -0.021 | epoxomicin 0.03 | [9] 0.01 | [10] -0.017 | [11] 0.008 | rosiglitazone 0.012 | [12] -0.061 | [13] -0.051

DENR (UniProt O43583)
inactive: [1] -0.009 | [2] -0.014 | [3] -0.042 | [4] 0.021 | Nexturastat A -0.018 | vemurafenib -0.022 | [5] -0.143 | [6] 0.085 | givinostat -0.048 | barasertib 0.008 | [7] -0.003 | volasertib 0.127 | [8] -0.041 | epoxomicin 0.012 | [9] 0.025 | [10] -0.055 | [11] -0.056 | rosiglitazone 0.019 | [12] -0.026 | [13] -0.033

DDX1 (UniProt Q92499)
inactive: [1] 0.087 | [2] -0.021 | [3] -0.002 | [4] -0.034 | Nexturastat A 0.151 | vemurafenib -0.007 | [5] 0.004 | [6] 0.059 | givinostat 0.05 | barasertib 0.018 | [7] 0.12 | volasertib 0.042 | [8] 0.051 | epoxomicin 0.057 | [9] -0.074 | [10] -0.031 | [11] 0.009 | rosiglitazone -0.006 | [12] 0.131 | [13] 0.078

DES (UniProt P17661)
inactive: [1] -0.281 | [2] 0.014 | [3] -0.01 | [4] -0.305 | Nexturastat A 0.286 | vemurafenib -0.001 | [5] -0.029 | [6] 0.148 | givinostat 0.108 | barasertib -0.008 | [7] 0.091 | volasertib 0.088 | [8] -0.104 | epoxomicin -0.041 | [9] -0.011 | [10] 0.146 | [11] -0.072 | rosiglitazone -0.023 | [12] 0.187 | [13] -0.001

Fetched one by one from the list above, 2 records:
DDX1 (UniProt Q92499)
inactive: [1] 0.087 | [2] -0.021 | [3] -0.002 | [4] -0.034 | Nexturastat A 0.151 | vemurafenib -0.007 | [5] 0.004 | [6] 0.059 | givinostat 0.05 | barasertib 0.018 | [7] 0.12 | volasertib 0.042 | [8] 0.051 | epoxomicin 0.057 | [9] -0.074 | [10] -0.031 | [11] 0.009 | rosiglitazone -0.006 | [12] 0.131 | [13] 0.078

DENR (UniProt O43583)
inactive: [1] -0.009 | [2] -0.014 | [3] -0.042 | [4] 0.021 | Nexturastat A -0.018 | vemurafenib -0.022 | [5] -0.143 | [6] 0.085 | givinostat -0.048 | barasertib 0.008 | [7] -0.003 | volasertib 0.127 | [8] -0.041 | epoxomicin 0.012 | [9] 0.025 | [10] -0.055 | [11] -0.056 | rosiglitazone 0.019 | [12] -0.026 | [13] -0.033

(listing goes on)

DIABLO (UniProt Q9NR28)
inactive: [1] 0 | [2] 0.033 | [3] -0.009 | [4] 0.013 | Nexturastat A -0.095 | vemurafenib 0.093 | [5] 0.006 | [6] -0.036 | givinostat -0.007 | barasertib 0.002 | [7] 0.031 | volasertib 0.024 | [8] -0.04 | epoxomicin 0.021 | [9] 0.029 | [10] 0.019 | [11] -0.003 | rosiglitazone -0.006 | [12] -0.063 | [13] 0.14

DGCR2 (UniProt P98153)
inactive: [1] 0.012 | [2] 0.021 | [3] 0.029 | [4] -0.02 | Nexturastat A -0.078 | vemurafenib 0 | [5] -0.065 | [6] -0.016 | givinostat -0.031 | barasertib -0.011 | [7] -0.11 | volasertib -0.036 | [8] -0.027 | epoxomicin 0.016 | [9] -0.016 | [10] -0.045 | [11] 0.038 | rosiglitazone -0.044 | [12] -0.009 | [13] -0.004

DDX39B isoform 2 (UniProt Q13838)
inactive: [1] 0.003 | [2] -0.006 | [3] -0.006 | [4] 0.003 | Nexturastat A 0.006 | vemurafenib 0 | [5] 0.002 | [6] -0.044 | givinostat -0.034 | barasertib -0.05 | [7] 0.059 | volasertib 0.063 | [8] -0.004 | epoxomicin -0.048 | [9] 0.004 | [10] 0.073 | [11] -0.039 | rosiglitazone -0.017 | [12] 0.028 | [13] 0.135

DDX49 (UniProt Q9Y6V7)
inactive: [1] 0.063 | [2] -0.044 | [3] -0.082 | [4] -0.056 | Nexturastat A 0.145 | vemurafenib 0.007 | [5] 0 | [6] 0.059 | givinostat -0.001 | barasertib -0.074 | [7] 0.157 | volasertib 0.222 | [8] -0.003 | epoxomicin -0.013 | [9] 0.018 | [10] -0.009 | [11] -0.051 | rosiglitazone -0.06 | [12] 0.059 | [13] 0.136

DENND6A (UniProt Q8IWF6)
inactive: [1] 0.035 | [2] 0.033 | [3] 0.061 | [4] 0.041 | Nexturastat A -0.023 | vemurafenib -0.039 | [5] 0.037 | [6] -0.057 | givinostat 0.076 | barasertib -0.101 | [7] 0.021 | volasertib -0.178 | [8] 0.113 | epoxomicin 0.068 | [9] -0.01 | [10] 0.215 | [11] -0.053 | rosiglitazone 0.13 | [12] 0.056 | [13] -0.225

DHDDS isoform 2 (UniProt Q86SQ9)
inactive: [1] -0.042 | [2] 0.01 | [3] -0.103 | [4] 0.082 | Nexturastat A -0.094 | vemurafenib 0.024 | [5] 0.077 | [6] -0.038 | givinostat 0.008 | barasertib 0.1 | [7] 0.053 | volasertib 0.021 | [8] -0.022 | epoxomicin -0.006 | [9] -0.006 | [10] 0.02 | [11] 0.061 | rosiglitazone -0.012 | [12] -0.058 | [13] 0.134

DLAT (UniProt P10515)
inactive: [1] 0.02 | [2] -0.016 | [3] -0.011 | [4] -0.094 | Nexturastat A 0.16 | vemurafenib -0.079 | [5] -0.061 | [6] 0.095 | givinostat 0.095 | barasertib -0.083 | [7] 0.061 | volasertib 0.23 | [8] -0.018 | epoxomicin -0.111 | [9] 0.115 | [10] 0.107 | [11] -0.029 | rosiglitazone -0.091 | [12] 0.143 | [13] 0.118
